Screen size: about 140,000 compounds; about 4,300 (3.1%) were called active. Inconclusive means that the source gave no clear call. Such entries were picked first, then a sample of the others.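 The calls were made as follows: active = readout at or below -70, meaning at least 70% loss of cells showing the perinucleolar compartment, a nuclear body marking cancer cells; inconclusive = readout between -30 and a set limit; inactive = the rest.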
Assay: High Content Assay for Compounds that inhibit the Assembly of the Perinucleolar Compartment;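 also: plate controls were DMSO wells for no effect and camptothecin positive control wells for full effect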
Conditions: PC3M PTB-GFP, PNC prevalence imaging, 16 h; at 10 µM; stronger effect = lower value
Procedure, shortened: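 Read-out is percentage of cells bearing a perinucleolar compartment, from automated 20x imaging of fixed, Hoechst-stained PC3M PTB-GFP cells. Cells were seeded 4 h, then exposed 16 h to compound (23 nl of library stock) in duplicate plates.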

Compound | activity change (PNC), negative = inhibition
CCOC(=O)c1cnn2c(C)cc(-c3ccccc3)nc12 | inconclusive: -43.5%
CCN(C(=S)NC(=O)c1ccccc1Br)C1CCCCC1 | inactive: -9.68%
CC(C)OC(=O)c1c(-c2ccc(C(C)C)cc2)csc1NC(=O)C1CCCO1 (stereo not drawn) | inconclusive: -40.9%
Cc1ccc2nc(C3CCCN(C(=S)Nc4ccccc4C)C3)[nH]c2c1 (stereo not drawn) | inactive: 19.3%
O=C(Nc1ccc2nc(-c3cccnc3)[nH]c2c1)c1ccco1 | inconclusive: -63.4%
CCOC(=O)N1CCN(C(=O)C2CCN(S(=O)(=O)c3ccc(Br)s3)CC2)CC1 | inconclusive: -47.3%
COC(=O)C1=C(CSc2nc3c(cc2C#N)CN(C)CC3)OC(N)=C(C#N)C1c1ccc(F)cc1 (stereo not drawn) | inconclusive: -62%
Cc1ccc(S(=O)(=O)NNc2ccccc2)c(C)c1 | inconclusive: -30.8%
CC1(C)CC(=O)C2=C(C1)N(Cc1cccnc1)C(=O)C2(NC(=O)c1cccnc1)C(F)(F)F (stereo not drawn) | inactive: 50%
O=C(O)c1ccccc1C(=O)c1cccs1 | inconclusive: -34.3%
O=c1cc(O)n(-c2ccc(F)cc2)c(=S)[nH]1 | inactive: -18.4%
Cc1ccc(N2C(=O)SC(N(CC(=O)O)c3cccc(C)c3)C2=O)cc1 (stereo not drawn) | inactive: 14.8%
CCn1c(CSc2ncccn2)nnc1SCC(=O)N1c2ccccc2CC1C (stereo not drawn) | inconclusive: -76%
O=C(CSc1nnnn1-c1ccc2c(c1)OCO2)NCc1cccs1 | inconclusive: -55%
O=C(OCC(=O)N1CCc2ccccc21)C1=COCCO1 | inconclusive: -36.4%
O=C(CSc1nnc(-c2ccc(O)cc2)o1)Nc1ccc2c(c1)OCCO2 | inconclusive: -38.9%
CCCCC(=O)NC(=S)NNC(=O)CC | active: -94.1%
NC(=O)C1CCN(C(=O)c2cnn(-c3ccccc3)c2NC(=O)c2ccco2)CC1 | inconclusive: -35.8%
N#CC1(c2ccccc2)CCCN1C(=O)c1ccc(Br)cc1 (stereo not drawn) | inconclusive: -46.8%
O=[N+]([O-])c1ccc(/C=N/n2c(C3CCCCC3)n[nH]c2=S)cc1 | inactive: 6.33%

Looked up by compound from the list above, 3 records:
Compound | activity change (PNC), negative = inhibition
O=[N+]([O-])c1ccc(/C=N/n2c(C3CCCCC3)n[nH]c2=S)cc1 | inactive: 6.33%
CC(C)OC(=O)c1c(-c2ccc(C(C)C)cc2)csc1NC(=O)C1CCCO1 (stereo not drawn) | inconclusive: -40.9%
NC(=O)C1CCN(C(=O)c2cnn(-c3ccccc3)c2NC(=O)c2ccco2)CC1 | inconclusive: -35.8%

The results go on:

Compound | activity change (PNC), negative = inhibition
Cc1ccc(C)c(OCCCC(=O)Nc2ccc(N3CCOCC3)cc2)c1 | active: -83.6%
CCN(CC)S(=O)(=O)c1ccc(OC)c(NC(=O)C(Cc2ccccc2)N2C(=O)c3ccccc3C2=O)c1 (stereo not drawn) | inconclusive: -45%
Cc1ccc(CC2CC(=O)N(CC(=O)O)C2=O)cc1 (stereo not drawn) | inconclusive: -42.4%
O=C(N/N=C/c1ccc2cccc(OCc3ccccc3)c2n1)c1ccc(Cl)cc1 | inconclusive: -36.2%
CCOc1ccc(N2C(=O)CC(Sc3nccc(C)n3)C2=O)cc1 (stereo not drawn) | inconclusive: -40.8%
Cc1cc([N+](=O)[O-])ccc1N(C)C | inactive: 11.9%
CCCCC(=O)NC(=S)Nc1ccc(S(=O)(=O)N2CCCC2)cc1 | inconclusive: -34.7%
CC1CCCN(C2=C(Cl)C(=O)N(c3cccc(Cl)c3)C2=O)C1 (stereo not drawn) | inactive: 38.3%
CCCOc1ccc(CC(=O)NCC2(c3ccccc3)CCOCC2)cc1OC | inactive: 62.3%
COC(=O)CN1C(=O)C2(OCCCO2)c2ccccc21 | inactive: -23.2%
CCCc1c(O)nc(SCCN(CC)CC)[nH]c1=O | inconclusive: -58.2%
CCCCNC(NCCCC)=C(S(=O)(=O)CC)S(=O)(=O)CC | inconclusive: -34.2%
CCOC(=O)c1[nH]c2ccc(OC)cc2c1NC(=O)c1cccc(OC)c1 | inconclusive: -32.4%
CCOc1ccc(/C=C/C(=O)NCCc2ccc(OC)c(OC)c2)cc1 | inconclusive: -58.4%
Cc1nn(CC(=O)Nc2ccc(N(C)C)cc2)c(C)c1[N+](=O)[O-] | inconclusive: -57.4%
Cc1ccc(Nc2nc(-c3ccc(S(=O)(=O)N4CCOCC4)cc3)cs2)cc1Cl | inconclusive: -30.8%
O=C(Cn1ncc2c(=O)oc3ccccc3c21)N1CCN(c2ccccn2)CC1 | inconclusive: -78.1%
COc1ccc(S(=O)(=O)N2CCC(C(=O)NCC3CCCO3)CC2)cc1C (stereo not drawn) | inconclusive: -51.4%
Cc1cccc(S(=O)(=O)Nc2cccc(-c3cn4ccsc4n3)c2)c1 | inconclusive: -59.3%
Cc1cccc(OCC(=O)N2CCC(N3CCOCC3)CC2)c1 | inconclusive: -43.6%

Compound | activity change (PNC), negative = inhibition
N#CC1=C(N)OC2=C(C(=O)CCC2)C12CCC1(CC2)OCCO1 | inactive: -28.5%
CNC(=S)N/N=C1\C(=O)c2cccc3cccc1c23 | inactive: -10.6%
O=C(Nn1cnnc1)c1csc2ccccc12 | inconclusive: -33.5%
Cc1ccc(N2CCN(S(=O)(=O)N(C)C)CC2)cc1Cl | inconclusive: -56.6%
COc1ccccc1NC(=O)c1oc2ccc(C)cc2c1C | active: -80.1%
O=C(CSc1nc2ccsc2c(=O)n1-c1ccccc1)N1CCCC1 | inconclusive: -41%
Cc1ccc(C(=O)CSC2=C(C#N)C(c3ccco3)C3=C(CC(C)(C)CC3=O)N2)cc1 (stereo not drawn) | inactive: -4.28%
CC1CCN(S(=O)(=O)c2ccc3c(c2)c(=O)c(C(=O)NCc2ccccc2Cl)cn3C)CC1 | inactive: -7.51%
Cc1cccc(N2CN(Cc3cccnc3)CNC2=S)c1 | inconclusive: -33%
O=c1c2ccccc2nnn1CSc1nnc2ccccn12 | inactive: -27.9%
COc1ccc(-c2nc3nc(C)cc(C)n3n2)cc1 | inconclusive: -45.8%
O=C(NC1CCCCC1)NC1CCN(S(=O)(=O)c2ccc3c(c2)OCCO3)CC1 | inconclusive: -49%
c1ccc(CSc2ncnc3c2cnn3Cc2ccccc2)cc1 | active: -112%
CC1CCc2sc(C(=O)OCC(=O)NCc3ccccc3)cc2C1 (stereo not drawn) | active: -94.4%
COc1ccc(CCNC(=O)C2CCN(c3nn4c(=O)cc(C)nc4s3)CC2)cc1OC | inconclusive: -39.9%
Cc1cc(OCCOCCN(C)CCO)cc(C)c1Cl | inconclusive: -43.2%
C=CCn1c(SCc2nc3cc(C(F)(F)F)ccc3c(=O)[nH]2)nc2sc(CC)cc2c1=O | inconclusive: -64.1%
CCOC(=O)c1cc(CC)sc1/N=C/c1c(O)ccc2ccccc12 | active: -88.3%

— PubChem BioAssay AID2417 (National Center for Advancing Translational Sciences (NCATS), 2010)
